Source: patent publication US20190093170A1, “USE OF TRANSLATIONAL PROFILING TO IDENTIFY TARGET MOLECULES FOR THERAPEUTIC TREATMENT” (THE REGENTS OF THE UNIVERSITY OF CALIFORNIA, priority 2013, published 2019)
At least one structure is not confirmed: it was looked up by name or label, or the drawing left a doubt.

How the values were obtained:
[1] = tested on: YB1, MTA1, vimentin, and CD44; test: Western blot and qPCR of invasion genes in PC3 cells; format: cell-based, human; details: starting at 6 hr of treatment
Description: Western blot analysis was performed as previously described (Hsieh et al., Cancer Cell 17:249-261 (2010)) with antibodies specific to phospho-AKT^S473 (Cell Signaling), AKT (Cell Signaling), phospho-p70S6K^T389 (Cell Signaling), phospho-rpS6^S240/244 (Cell Signaling), rpS6 (Cell Signaling), phospho-4EBP1^T37/46 (Cell Signaling), 4EBP1 (Cell Signaling), 4EBP2 (Cell Signaling), YB1 (Cell Signaling), CD44 (Cell Signaling), LEF1 (Cell Signaling), PTEN (Cell Signaling), eEF2 (Cell Signaling), GAPDH (Cell Signaling), vimentin (BD Biosciences), eIF4E (BD Biosciences), Flag (Sigma), β-actin (Sigma), MTA1 (Santa Cruz Biotechnology), Twist (Santa Cruz Biotechnology), rpL28 (Santa Cruz Biotechnology), HA (Covance) and rictor (Bethyl Laboratory).
RNA was isolated using the manufacturer's protocol for RNA extraction with TRIzol Reagent (Invitrogen) using the Pure Link RNA mini kit (Invitrogen). RNA was DNase-treated with Pure Link Dnase (Invitrogen). DNase-treated RNA was transcribed to cDNA with SuperScript III First-Strand Synthesis System for RT-PCR (Invitrogen), and 1 μl of cDNA was used to run a SYBR green detection qPCR assay (SYBR Green Supermix and MyiQ2, Biorad). Primers were used at 200 nM.

[2] = tested on: PC3 prostate cancer cells; test: Matrigel invasion assay; format: cell-based, human; details: 6-hr pre-treatment followed by 6 hr of cell invasion; ATP site inhibitor 200 nM, rapamycin 50 nM
[3] = tested on: MDA-MB-361, SKOV3 and ACHN cells; test: Western blot and qPCR of 4-gene invasion signature in metastatic cell lines; format: cell-based, human; details: MDA-MB-361, SKOV3, ACHN cells; 48-hour treatment, 200 nM
[4] = tested on: PC3 human prostate cancer cells; test: Ribosome profiling: translational efficiency (ribosome footprint vs RNA-seq read density); format: cell-based; details: rapamycin 50 nM;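 note: Per-gene footprint-to-mRNA density ratio averaged per codon over the coding sequence, scaled so the median gene equals 1.0 after excluding regulated genes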

CO[C@H]1C[C@@H]2CC[C@@H](C)[C@@](O)(O2)C(=O)C(=O)N2CCCC[C@H]2C(=O)O[C@H]([C@H](C)C[C@@H]2CC[C@@H](O)[C@H](OC)C2)CC(=O)[C@H](C)/C=C(\C)[C@@H](O)[C@@H](OC)C(=O)[C@H](C)C[C@H](C)/C=C/C=C/C=C/1C [Rapamycin, rapamycin]
expression of YB1, MTA1, vimentin, and CD44 at the protein but not transcript level [1]: did not alter their expression
invasive potential of PC3 prostate cancer cells [2]: but not rapamycin
4-gene invasion signature (YB1, MTA1, vimentin, CD44) response [3]: but not rapamycin
effect on gene expression at the 3-hr time point [4]: did not markedly affect gene expression
